In doi:10.1101/859587:
Residue numbers refer to the chain shown, from its start. No constants are given. Whether binding was seen depends on the method and setting. Binding seen in cells or lysates may run through a third protein. Some entries that bind do so weakly or less than the wild type. For some of these results: Sequences can lack the tags named with a protein.

Chains of the proteins cited; added tags and fusions are not shown. Lines headed by an entry give the natural chain unless they say otherwise; changes in a name come on top. Residues count along the entry.
UniProt Q9JLB9, 58-549: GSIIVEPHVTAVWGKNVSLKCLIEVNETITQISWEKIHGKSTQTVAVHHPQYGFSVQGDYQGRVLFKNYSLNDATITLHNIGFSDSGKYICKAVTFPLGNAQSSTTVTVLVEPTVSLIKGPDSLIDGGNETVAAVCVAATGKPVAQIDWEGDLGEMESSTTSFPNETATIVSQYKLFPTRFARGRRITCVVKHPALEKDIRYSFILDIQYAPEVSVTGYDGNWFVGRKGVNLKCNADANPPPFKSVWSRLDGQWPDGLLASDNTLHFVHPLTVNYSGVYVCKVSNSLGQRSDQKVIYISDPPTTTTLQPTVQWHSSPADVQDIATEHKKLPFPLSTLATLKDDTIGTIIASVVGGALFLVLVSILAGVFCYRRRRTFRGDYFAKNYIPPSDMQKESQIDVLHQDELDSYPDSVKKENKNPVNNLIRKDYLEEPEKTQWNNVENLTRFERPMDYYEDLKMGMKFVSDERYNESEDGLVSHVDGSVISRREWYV
UniProt Q8C863, whole entry: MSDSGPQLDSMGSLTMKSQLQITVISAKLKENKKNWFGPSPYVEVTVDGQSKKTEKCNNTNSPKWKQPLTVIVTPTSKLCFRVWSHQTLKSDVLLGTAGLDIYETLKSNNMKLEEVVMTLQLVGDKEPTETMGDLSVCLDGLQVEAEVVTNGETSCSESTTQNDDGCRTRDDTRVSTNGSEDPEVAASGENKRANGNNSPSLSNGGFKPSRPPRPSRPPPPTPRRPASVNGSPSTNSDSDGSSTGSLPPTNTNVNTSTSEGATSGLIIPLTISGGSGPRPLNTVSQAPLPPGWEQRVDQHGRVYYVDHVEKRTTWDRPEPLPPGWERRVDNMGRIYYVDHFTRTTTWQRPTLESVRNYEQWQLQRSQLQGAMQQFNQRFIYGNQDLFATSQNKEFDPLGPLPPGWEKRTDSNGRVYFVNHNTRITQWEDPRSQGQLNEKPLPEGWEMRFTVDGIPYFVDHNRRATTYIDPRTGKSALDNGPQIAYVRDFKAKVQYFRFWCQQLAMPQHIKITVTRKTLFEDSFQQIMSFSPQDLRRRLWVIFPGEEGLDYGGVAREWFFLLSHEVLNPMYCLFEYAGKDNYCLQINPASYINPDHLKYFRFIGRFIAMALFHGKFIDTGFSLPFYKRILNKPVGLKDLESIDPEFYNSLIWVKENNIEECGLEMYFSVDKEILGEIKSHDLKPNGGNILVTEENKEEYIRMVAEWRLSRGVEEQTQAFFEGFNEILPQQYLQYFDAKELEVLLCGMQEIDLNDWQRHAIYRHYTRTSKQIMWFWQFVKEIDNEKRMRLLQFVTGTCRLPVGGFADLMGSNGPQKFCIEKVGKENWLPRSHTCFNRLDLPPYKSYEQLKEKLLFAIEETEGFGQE
UniProt P46935, whole entry: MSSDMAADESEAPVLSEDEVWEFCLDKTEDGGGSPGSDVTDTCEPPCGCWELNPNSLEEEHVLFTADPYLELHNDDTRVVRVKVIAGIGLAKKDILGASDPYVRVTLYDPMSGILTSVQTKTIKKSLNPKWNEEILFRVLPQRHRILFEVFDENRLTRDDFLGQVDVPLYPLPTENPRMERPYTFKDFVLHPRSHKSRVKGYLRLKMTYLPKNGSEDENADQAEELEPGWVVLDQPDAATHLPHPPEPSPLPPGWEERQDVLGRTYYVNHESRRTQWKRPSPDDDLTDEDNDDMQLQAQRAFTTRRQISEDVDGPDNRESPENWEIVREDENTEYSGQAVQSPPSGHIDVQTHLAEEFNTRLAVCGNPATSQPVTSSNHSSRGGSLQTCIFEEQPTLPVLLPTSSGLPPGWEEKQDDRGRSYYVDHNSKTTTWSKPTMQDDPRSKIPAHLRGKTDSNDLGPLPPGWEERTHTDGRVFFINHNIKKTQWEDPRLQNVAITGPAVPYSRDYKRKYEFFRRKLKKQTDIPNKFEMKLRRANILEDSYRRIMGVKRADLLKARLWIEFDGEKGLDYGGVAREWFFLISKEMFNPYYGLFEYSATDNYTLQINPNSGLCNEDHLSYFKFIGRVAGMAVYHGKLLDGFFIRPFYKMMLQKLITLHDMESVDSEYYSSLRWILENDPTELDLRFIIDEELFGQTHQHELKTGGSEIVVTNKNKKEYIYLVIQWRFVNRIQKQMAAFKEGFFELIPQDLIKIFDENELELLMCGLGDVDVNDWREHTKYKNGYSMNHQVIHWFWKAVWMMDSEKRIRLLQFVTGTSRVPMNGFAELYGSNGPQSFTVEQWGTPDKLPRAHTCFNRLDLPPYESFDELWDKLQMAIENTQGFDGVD
UniProt P19491, 22-883: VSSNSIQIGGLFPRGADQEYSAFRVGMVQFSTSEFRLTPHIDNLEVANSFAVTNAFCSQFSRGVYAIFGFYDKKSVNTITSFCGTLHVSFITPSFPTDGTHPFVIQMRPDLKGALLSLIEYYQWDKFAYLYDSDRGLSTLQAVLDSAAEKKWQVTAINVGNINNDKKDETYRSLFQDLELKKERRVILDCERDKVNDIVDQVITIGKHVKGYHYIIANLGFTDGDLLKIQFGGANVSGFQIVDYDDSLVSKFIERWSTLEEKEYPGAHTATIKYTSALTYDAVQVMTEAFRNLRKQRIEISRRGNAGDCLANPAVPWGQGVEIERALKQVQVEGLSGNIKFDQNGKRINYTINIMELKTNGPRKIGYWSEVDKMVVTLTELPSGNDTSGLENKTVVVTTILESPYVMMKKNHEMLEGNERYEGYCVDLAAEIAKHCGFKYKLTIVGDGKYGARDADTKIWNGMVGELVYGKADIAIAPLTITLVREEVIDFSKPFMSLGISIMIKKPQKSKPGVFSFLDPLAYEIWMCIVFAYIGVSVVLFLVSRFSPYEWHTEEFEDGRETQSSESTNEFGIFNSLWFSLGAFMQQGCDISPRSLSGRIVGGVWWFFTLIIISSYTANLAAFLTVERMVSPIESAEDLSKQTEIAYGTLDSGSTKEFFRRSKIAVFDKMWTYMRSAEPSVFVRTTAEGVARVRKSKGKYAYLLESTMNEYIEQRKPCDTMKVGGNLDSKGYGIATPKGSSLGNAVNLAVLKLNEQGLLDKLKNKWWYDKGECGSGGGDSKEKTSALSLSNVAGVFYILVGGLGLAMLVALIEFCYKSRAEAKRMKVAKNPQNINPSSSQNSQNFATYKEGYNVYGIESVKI
UniProt P46934, whole entry: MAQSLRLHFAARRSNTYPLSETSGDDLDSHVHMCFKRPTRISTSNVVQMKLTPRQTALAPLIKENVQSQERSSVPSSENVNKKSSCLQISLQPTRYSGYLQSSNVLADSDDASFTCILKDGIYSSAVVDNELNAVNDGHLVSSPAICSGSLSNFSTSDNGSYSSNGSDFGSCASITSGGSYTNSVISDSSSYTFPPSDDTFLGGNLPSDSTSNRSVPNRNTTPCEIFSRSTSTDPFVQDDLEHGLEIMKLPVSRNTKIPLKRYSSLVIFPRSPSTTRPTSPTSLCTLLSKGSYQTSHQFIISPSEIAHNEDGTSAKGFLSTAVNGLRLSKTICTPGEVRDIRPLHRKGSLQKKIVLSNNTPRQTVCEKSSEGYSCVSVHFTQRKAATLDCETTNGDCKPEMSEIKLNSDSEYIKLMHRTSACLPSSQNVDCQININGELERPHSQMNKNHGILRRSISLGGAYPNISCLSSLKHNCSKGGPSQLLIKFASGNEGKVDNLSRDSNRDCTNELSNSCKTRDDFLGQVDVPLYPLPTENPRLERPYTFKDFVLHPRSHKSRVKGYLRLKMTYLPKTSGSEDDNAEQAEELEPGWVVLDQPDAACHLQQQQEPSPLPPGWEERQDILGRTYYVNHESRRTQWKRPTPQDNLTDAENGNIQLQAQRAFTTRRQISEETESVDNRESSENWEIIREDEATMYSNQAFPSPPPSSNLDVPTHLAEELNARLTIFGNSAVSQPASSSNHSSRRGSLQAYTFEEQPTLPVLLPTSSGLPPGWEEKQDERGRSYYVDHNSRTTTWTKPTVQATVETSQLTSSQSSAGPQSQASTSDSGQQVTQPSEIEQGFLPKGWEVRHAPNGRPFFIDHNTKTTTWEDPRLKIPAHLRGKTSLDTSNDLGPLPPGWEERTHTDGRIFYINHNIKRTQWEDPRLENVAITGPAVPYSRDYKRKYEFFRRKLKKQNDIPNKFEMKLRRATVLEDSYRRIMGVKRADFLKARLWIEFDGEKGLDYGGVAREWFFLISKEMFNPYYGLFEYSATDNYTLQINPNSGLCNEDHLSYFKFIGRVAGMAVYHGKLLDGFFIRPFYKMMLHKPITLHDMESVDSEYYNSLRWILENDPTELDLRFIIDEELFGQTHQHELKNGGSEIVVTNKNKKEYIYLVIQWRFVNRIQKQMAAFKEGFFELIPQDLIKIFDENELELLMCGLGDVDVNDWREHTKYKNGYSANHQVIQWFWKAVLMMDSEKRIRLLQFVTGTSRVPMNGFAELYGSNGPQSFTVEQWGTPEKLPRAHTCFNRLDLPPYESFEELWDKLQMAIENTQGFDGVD

Assays:
[1] = biological target: T1, HA-tagged full length SUSD4 (mouse) (UniProt Q8BH32); assay: pull-down
T1 sequence: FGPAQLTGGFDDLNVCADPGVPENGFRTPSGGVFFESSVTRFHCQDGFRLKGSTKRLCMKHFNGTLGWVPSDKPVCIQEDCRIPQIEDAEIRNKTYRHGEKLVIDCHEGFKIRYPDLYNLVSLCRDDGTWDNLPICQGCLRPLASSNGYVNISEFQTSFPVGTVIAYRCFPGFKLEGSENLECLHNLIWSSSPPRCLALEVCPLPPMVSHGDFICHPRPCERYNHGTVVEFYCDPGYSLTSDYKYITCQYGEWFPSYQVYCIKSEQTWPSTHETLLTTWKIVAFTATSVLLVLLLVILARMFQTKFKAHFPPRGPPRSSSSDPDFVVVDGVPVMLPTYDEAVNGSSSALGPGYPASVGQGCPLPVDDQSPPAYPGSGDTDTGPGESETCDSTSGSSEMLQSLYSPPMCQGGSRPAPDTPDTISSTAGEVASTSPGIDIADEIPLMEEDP

[2] = biological target: PVRL3α (control transmembrane protein) (UniProt Q9JLB9); assay: co-IP
[3] = biological target: T2, HA-SUSD4-NT (extracellular form of SUSD4) (mouse) (UniProt Q8BH32); assay: co-IP
T2 sequence: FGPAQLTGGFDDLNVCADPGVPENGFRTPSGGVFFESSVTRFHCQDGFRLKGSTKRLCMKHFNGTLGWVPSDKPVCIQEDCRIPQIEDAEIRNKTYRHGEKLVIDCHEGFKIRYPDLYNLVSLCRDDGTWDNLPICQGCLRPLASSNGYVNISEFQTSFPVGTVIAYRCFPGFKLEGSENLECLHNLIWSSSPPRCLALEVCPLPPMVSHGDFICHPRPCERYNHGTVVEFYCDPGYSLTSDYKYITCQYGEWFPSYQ

[4] = biological target: T3, HA-SUSD4-ΔLY (point mutation of the LPxY site) (mouse) (UniProt Q8BH32); assay: co-IP
T3 sequence: T1 sequence with L335A, Y338A

[5] = biological target: T4, HA-SUSD4-ΔPY/LY (double mutant at both PPxY and LPxY) (mouse) (UniProt Q8BH32); assay: co-IP
T4 sequence: T1 sequence with L335A, Y338A, P370A, Y373A

[6] = biological target: T1, HA-tagged full length SUSD4 (mouse); assay: co-IP
[7] = biological target: T5, HA-SUSD4ΔNT (lacking the extracellular domain) (mouse) (UniProt Q8BH32); assay: co-IP
T5 sequence: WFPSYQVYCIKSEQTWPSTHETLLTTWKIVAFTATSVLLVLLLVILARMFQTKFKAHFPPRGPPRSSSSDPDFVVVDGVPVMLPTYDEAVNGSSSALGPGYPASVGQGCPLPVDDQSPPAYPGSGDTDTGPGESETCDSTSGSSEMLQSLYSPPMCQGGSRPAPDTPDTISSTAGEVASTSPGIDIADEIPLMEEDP

[8] = biological target: T6, HA-SUSD4-ΔPY (point mutation of the PPxY site) (mouse) (UniProt Q8BH32); assay: co-IP
T6 sequence: T1 sequence with P370A, Y373A

Substance	binding [1]	binding [4]	binding [5]	binding [6]	other results
ITCH (from UniProt Q8C863 1-864) (enzyme)	binds				
NEDD4 (mouse cerebellar synaptosomes) (from UniProt P46935 1-887) (enzyme)	binds				

Now from value to substance, other results behind:

binding [1]	binding [4]	binding [5]	binding [6]	Substance	other results
	binds	binds	binds	SEP-tagged GLUA2 (from UniProt P19491 22-883) (receptor)	binding [2]: no binding; binding [3]: binds; binding [7]: binds
	no binding	no binding	binds	NEDD4 (HEK293 cells) (from UniProt P46934 1-1319) (enzyme)	binding [8]: binds
binds				WWP1 (from UniProt Q8BZZ3 1-918) (enzyme)	
